Measurements reported in PubChem BioAssay AID720505 (Drosophila RNAi Screening Center, 2013)
The screen tested about 20,000 reagents; this is a random part of those that have a named target and a result. Over the whole deposit, about 2,100 (10%) got an active call. 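Raw plate signals without normalisation; calls rest on control-based scores that were not deposited; replicate 2 separates called from uncalled poorly.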 Not stated in the record: the amount of reagent, the time to read-out.

Test: 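Fly regulators or components of the CRAC channel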 (primary screen)
System: Drosophila S2R+ cells
Reagents: long dsRNA against Drosophila genes
Conditions: thapsigargin (2 µM) in calcium-free buffer to empty internal stores, then 2 mM calcium added back
Measured: 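Fluo-4 signal in 384-well plates read on a FLIPR after thapsigargin (2 µM, calcium-free) store depletion and 2 mM calcium add-back; unnormalised mean endpoint per well; screen run twice, selected wells retested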
Direction: calcium signal and retest calcium signal: higher = more calcium entry after store depletion
Hit rule: 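Knock-downs counted as hits when calcium entry dropped relative to STIM1 positive and Rho1 negative controls present on each plate; roughly 1500 genes called, with reductions of differing size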
Calls: active = called as lowering calcium entry; inactive = not called

gene knocked down | amplicon | calcium signal, replicate 1 | calcium signal, replicate 2 | retest calcium signal, replicate 1 | retest calcium signal, replicate 2 | call
CG31661 | DRSC00296 | 163 | 156 | – | – | inactive
wuho | DRSC18101 | 170 | 119 | – | – | inactive
CG42820 | DRSC02265 | 152 | 143 | – | – | inactive
CG13073 | DRSC09956 | 93.4 | 180 | – | – | inactive
CG15445 | DRSC20517 | 184 | 155 | – | – | inactive
fzr | DRSC18781 | 299 | 126 | – | – | inactive
Tab2 | DRSC07481 | 113 | 109 | – | – | inactive
Ype | DRSC20301 | 170 | 133 | – | – | inactive
Frq1 | DRSC19961 | 91.9 | 137 | – | – | inactive
mRpL36 | DRSC10337 | 93.5 | 81.4 | – | – | inactive
Dysb | DRSC10730 | 110 | 126 | – | – | inactive
CG32815 | DRSC18177 | 64.6 | 150 | – | – | active
CG32815 | DRSC18179 | 90.1 | 144 | – | – | inactive
RfC3 | DRSC03411 | 165 | 139 | – | – | inactive
CG15353 | DRSC00383 | 104 | 134 | 5518 | 134 | inactive
ATPsynGL | DRSC03027 | 71.4 | 79.5 | – | – | active
Khc | DRSC07448 | 74.2 | 177 | – | – | active
rept | DRSC11388 | 66.3 | 132 | – | – | active
Rab14 | DRSC03403 | 86.8 | 94.6 | – | – | inactive
Cdk5 | DRSC07359 | 110 | 112 | – | – | inactive
CG13230 | DRSC06350 | 79.7 | 122 | – | – | inactive
Epp | DRSC14607 | 150 | 163 | – | – | inactive
CG6296 | DRSC16013 | 144 | 159 | – | – | inactive
CG8665 | DRSC03098 | 187 | 84.5 | – | – | inactive
CG1602 | DRSC06601 | 129 | 160 | – | – | inactive
CG3434 | DRSC10365 | 115 | 89.5 | – | – | inactive
CG12862 | DRSC06202 | 103 | 173 | – | – | inactive
trn | DRSC11407 | 68.5 | 72.3 | – | – | active

Continued, starting with the last 4 of the part before.
gene knocked down | amplicon | calcium signal, replicate 1 | calcium signal, replicate 2 | retest calcium signal, replicate 1 | retest calcium signal, replicate 2 | call
CG1602 | DRSC06601 | 129 | 160 | – | – | inactive
CG3434 | DRSC10365 | 115 | 89.5 | – | – | inactive
CG12862 | DRSC06202 | 103 | 173 | – | – | inactive
trn | DRSC11407 | 68.5 | 72.3 | – | – | active
Sh3beta | DRSC11001 | 107 | 74.5 | – | – | inactive
Sh3beta | DRSC22053 | 111 | 205 | – | – | inactive
CG18545 | DRSC15343 | 161 | 126 | – | – | inactive
Dp | DRSC07402 | 135 | 97.3 | – | – | inactive
ko | DRSC11893 | 113 | 95.1 | – | – | inactive
Keap1 | DRSC15528 | 175 | 211 | – | – | inactive
RpL30 | DRSC02087 | 83.7 | 87.2 | – | – | inactive
beta3GalTII | DRSC07253 | 132 | 198 | – | – | inactive
Ir52d | DRSC06264 | 111 | 203 | – | – | inactive
dpr6 | DRSC10162 | 102 | 110 | – | – | inactive
dpr6 | DRSC10163 | 104 | 122 | – | – | inactive
bard | DRSC14796 | 123 | 144 | – | – | inactive
CG14005 | DRSC02337 | 99.1 | 187 | – | – | inactive
CG33914 | DRSC05033 | 72.7 | 69.5 | – | – | inactive
CG33914 | DRSC05034 | 77.7 | 81.5 | – | – | inactive
CG12025 | DRSC08230 | 108 | 120 | – | – | inactive
lncRNA:CR9284 | DRSC03899 | 95.8 | 7752 | – | – | inactive
lncRNA:CR9284 | DRSC04536 | 149 | 113 | – | – | inactive
NetB | DRSC20262 | 106 | 94.3 | – | – | inactive
Akh | DRSC08138 | 95.6 | 85.3 | – | – | inactive
mthl2 | DRSC10287 | 98.5 | 90.2 | – | – | inactive
CG4042 | DRSC11751 | 98.9 | 119 | – | – | inactive
Cpr76Ba | DRSC11060 | 90.7 | 170 | – | – | inactive
CG10494 | DRSC04072 | 143 | 93.5 | – | – | inactive
CG5665 | DRSC11783 | 68.5 | 105 | – | – | active
Adck1 | DRSC04394 | 41.2 | 198 | – | – | active
Strump | DRSC09872 | 92.5 | 160 | – | – | inactive
CG17068 | DRSC20545 | 122 | 143 | – | – | inactive
